Drawing on PubChem BioAssay AID2685 (National Center for Advancing Translational Sciences (NCATS), 2010), this text covers cell number change and AC50 for 61 compounds.

As a reminder, the AC50 is the concentration giving half of the maximal activity seen. High values mean weaker potency, low ones greater potency.

The other results are listed elsewhere or left out. Further columns of the screen follow, without active or inactive calls. The list favours compounds with an active or inconclusive main result. The note in brackets gives the kind of curve behind each potency; many fits are weak.

The nature of this assay: qHTS Assay for Lipid Storage Modulators in Drosophila S3 Cells.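 As to cell number change: cells counted by Cell Tracker Red CMTPX staining in the red channel.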 The following applies: BODIPY lipid droplet fluorescence, 18-24 h; for cell number change: measured here: cell count max response, cells fed with added oleic acid. Put shortly: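 Drosophila S3 cells loaded with oleic acid (400 uM, as added) and compounds at several concentrations; lipid droplets imaged by 488-nm laser-scanning cytometry, 500–530 nm intensity and object ratio to cell channel. Percent activity normalized to 20 uM Triacsin C.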
Background: qHTS replaces the single test concentration by a dilution series.

[1] abbreviates: measured here: cell number channel AC50, cells fed with added oleic acid.
Setting [2] is: measured here: lipid fluorescence (Fed channel) AC50, cells fed with added oleic acid.

With `CCN1CCN(c2nc(Nc3ccc(C)c(C)c3)nc(N)c2[N+](=O)[O-])CC1`, the cell number change was 33.8%. Besides, the AC50 under setting [1] was 1.64 µM [rising, partial curve]. Moreover, under setting [2], the AC50 is 0.231 µM [rising, full curve, poor fit].
Turning to `CC(C)c1nc(C(N)=O)c2[nH]c(=O)n(-c3ccc(F)cc3)c2n1`, the cell number change is -21%.
For `COc1ccc(C(=O)Nc2ccc(NC(=O)c3ccccn3)cn2)cc1`, the cell number change was -0.806%.
Regarding `Nc1ccc(-c2nc3c(Cl)c(N)ccc3[nH]2)cc1`, the cell number change turned out to be 157%.
Take `Cc1cccc(N2CCN(S(=O)(=O)c3cc(-c4cc(C)no4)ccc3C)CC2C)c1` (stereo unspecified): the cell number change turned out to be 36.9%. Also, under setting [1], the AC50 is 0.231 µM [rising, full curve, poor fit]. For the same compound, the AC50 under setting [2] was 29.1 µM [rising, single point].
In the case of `O=C(NCc1nc(-c2ccc(Cl)cc2)no1)c1ccc2c(c1)OCO2`, the cell number change is -2.5%. The AC50 under setting [2] was 20.6 µM [rising, partial curve, poor fit].
On to `CCCn1c(CNC(=O)c2cccs2)nc2ccccc21`, for which the cell number change is -14.2%. Further, the AC50 under setting [1] is 0.164 µM [falling, full curve, poor fit].
Consider `O=S(=O)(/C=C/c1ccccc1)N1CCN(Cc2ccc3c(c2)OCO3)CC1`, for which the cell number change was found to be 6.83%.
With `CSc1ccc(/C=N/NC(=O)c2ccc(-n3cnnn3)cc2)cc1`, the cell number change was -4.15%. The concentration at half-maximal activity (AC50) under setting [2] is 25.9 µM [rising, single point].
`O=C(CN(Cc1ccc(F)cc1)C(=O)CCC(=O)Nc1nccs1)NCc1ccccc1`: the cell number change was found to be 10.3%.
In the case of `CC(CCc1ccccc1)NC(=O)Cc1ccc(Br)cc1` (stereo unspecified), the cell number change is -6.76%. Further, under setting [2], the half-maximal activity concentration (AC50) was 0.82 µM [rising, full curve].
For `COc1cc(OC)c(S(=O)(=O)N2CCCCC2)cc1S(=O)(=O)N1CCCCC1`, the cell number change was -3.91%.
For `CCOC(=O)c1ccc(NC(=O)c2ccccc2[N+](=O)[O-])cc1`, the cell number change worked out at 7.68%. Further, the concentration at half-maximal activity (AC50) under setting [2] was 6.51 µM [rising, single point].
In the case of `COc1cccc(OC)c1C(=O)N1CCN(c2c(Cc3ccccc3)c(C)nc3ncnn23)CC1`, the cell number change was determined as 1.65%. In addition, under setting [2], the AC50 is 29.1 µM [rising, single point].
With `CN(C)CCC(=O)c1cccc(Br)c1`, the cell number change was 16.8%. Moreover, under setting [1], the AC50 was 0.058 µM [rising, full curve, poor fit]. For the same compound, under setting [2], the AC50 was 0.92 µM [rising, full curve, poor fit].
Consider `Cc1noc(C)c1C(=O)Nc1nnc(-c2ccccc2)s1`, for which the cell number change amounted to 7.6%. In addition, under setting [2], the concentration at half-maximal activity (AC50) is 32.6 µM [rising, single point].
As to `Cc1ccc(S(=O)(=O)N(C)c2c(C)ccc(S(=O)(=O)N3CCN(C)CC3)c2C)cc1`, the cell number change is 4.49%. For the same compound, under setting [2], the AC50 was 0.00461 µM [rising, full curve, poor fit].
Take `COc1ccc(S(=O)(=O)N2CCN(Cc3ccccc3)CC2)cc1OC`: the cell number change amounted to 12.1%. The concentration at half-maximal activity (AC50) under setting [2] was 29.1 µM [rising, single point].
Consider `CCOCC(=O)OCC(=O)NC12CC3CC(CC(C3)C1)C2`, for which the cell number change was -20.8%. In addition, the AC50 under setting [2] is 0.0326 µM [falling, full curve].
Turning to `NS(=O)(=O)c1ccc(-c2ccc(/C=N/NC(=O)c3ccccc3O)o2)cc1`, the cell number change was -2.99%.
Consider `COc1ccccc1-c1ccc(Nc2cccc(C(F)(F)F)c2)nn1`, for which the cell number change turned out to be 42.8%. Besides, under setting [1], the AC50 is 10.3 µM [rising, partial curve, poor fit].
With `O=C(c1cc(-c2ccc(O)cc2)on1)N1CCCC1`, the cell number change came to 19.1%. Further, the AC50 under setting [2] is 6.51 µM [rising, single point].
In the case of `CC(C)CC(=O)N1CCN(Cc2ccc3c(c2)OCO3)CC1`, the cell number change worked out at 20%. Besides, the AC50 under setting [2] is 0.0058 µM [falling, full curve, poor fit].
As for `CCOc1ccccc1C(=O)NC1CCN(Cc2ccccc2)CC1`, the cell number change came out at 12.3%. Under setting [2], the AC50 is 23.1 µM [rising, single point].
For the compound `Cc1cc(NC(=O)CSc2nnc(Cc3ccccc3)o2)no1`, the cell number change came out at 15.2%. For the same compound, under setting [2], the concentration at half-maximal activity (AC50) was 7.31 µM [rising, partial curve].
For the compound `CCCOc1ccccc1C1CC(=O)NC(C)=C1C(=O)OCC(C)C` (stereo unspecified), the cell number change was -24.9%. Besides, the AC50 under setting [2] is 23.1 µM [falling, partial curve].
As for `O=C(O)Cn1cc(C(=O)C(F)(F)F)c2ccccc21`, the cell number change is -13.6%. Further, the AC50 under setting [2] is 0.13 µM [falling, full curve, poor fit].
With `Cc1noc(/C=C/N(C)C)c1S(=O)(=O)NC1CCCCC1`, the cell number change is -20.2%. For the same compound, under setting [2], the concentration at half-maximal activity (AC50) is 0.00517 µM [falling, full curve, poor fit].
For `CCC(C)NC(=O)c1c(N)n(/N=C/c2cccs2)c2nc3ccccc3nc12` (stereo unspecified), the cell number change was -10.3%.
In the case of `CC(C)(C)OC(=O)N1CCC(c2c(C(=O)O)cnn2-c2ccc(Cl)cc2)CC1`, the cell number change worked out at 24.1%. The AC50 under setting [1] is 2.06 µM [rising, full curve, poor fit].
As to `Cc1cc(C(=O)COC(=O)c2ccc(CO)cc2)c(C)n1CC1COc2ccccc2O1` (stereo unspecified), the cell number change is 1%. The AC50 under setting [2] was 0.00461 µM [rising, full curve, poor fit].
Turning to `CN(C)/N=C1\CCS(=O)(=O)c2sccc21`, the cell number change was -23%. Moreover, the AC50 under setting [2] was 29.1 µM [falling, single point].
Consider `COc1ccc(S(=O)(=O)N2CCC(C(=O)N3CCc4ccccc4C3)CC2)cc1C`, for which the cell number change was -3.62%. For the same compound, the AC50 under setting [1] is 0.00461 µM [falling, full curve, poor fit].
With `O=C1c2ccccc2C(=O)N1OS(=O)(=O)c1ccccc1`, the cell number change was -32.8%. For the same compound, the AC50 under setting [1] is 8.2 µM [falling, partial curve]. Further, under setting [2], the concentration at half-maximal activity (AC50) is 25.9 µM [falling, partial curve].
In the case of `Cc1cccc(N2C(=O)C3CC3C2=O)c1` (stereo unspecified), the cell number change was found to be 29.5%. Besides, the AC50 under setting [2] is 10.3 µM [rising, partial curve].
With `COc1ccc(C(=O)NCCc2cn3ccccc3n2)cc1`, the cell number change came to 12.9%. The AC50 under setting [1] is 1.64 µM [rising, partial curve]. Moreover, the AC50 under setting [2] was 4.61 µM [rising, partial curve].
With `Cc1c(NC(=O)c2cc3ccccc3c(=O)s2)c(=O)n(-c2ccccc2)n1C`, the cell number change is -13.1%. The AC50 under setting [2] was 9.2 µM [rising, single point].
On to `O=C(Cc1ccc2c(c1)OCCO2)Nc1cc(Cl)ccc1N1CCOCC1`, for which the AC50 under setting [1] is 2.06 µM [rising, partial curve].
Consider `Cc1ccc(S(=O)(=O)N(C)CC(=O)NCCCn2ccnc2)cc1`, for which the cell number change came to 20.8%.
`O=C(OCc1c(-c2ccccc2)ncc2ccccc12)c1cccc(Br)c1`: the cell number change is -35.4%. The AC50 under setting [1] is 29.1 µM [falling, single point].
For the compound `CCOC(=O)N1CCN(C(=O)CSc2nnc(-c3cc(OC)cc(OC)c3)o2)CC1`, the cell number change was found to be 58.4%. The AC50 under setting [1] is 4.11 µM [rising, full curve, poor fit]. Also, under setting [2], the AC50 is 6.51 µM [rising, partial curve].
For `CC(C)(C)c1cnnn1-c1ccc(/C=N/Nc2ccc([N+](=O)[O-])cc2)cc1`, the cell number change was -12.2%. Under setting [2], the AC50 is 29.1 µM [falling, single point].
With `CC1CCCN(S(=O)(=O)c2cccc(-c3cn4cccnc4n3)c2)C1` (stereo unspecified), the cell number change was -9.48%. Further, the AC50 under setting [2] is 0.326 µM [falling, full curve, poor fit].
For the compound `O=C(Nc1ccc2nn(-c3ccccc3)nc2c1)c1cccs1`, the cell number change was -54.3%. In addition, under setting [1], the AC50 was 29.1 µM [falling, single point].
With `Cc1ccc(C(=O)NCCCNC(=O)c2ccc(Cl)cc2)cn1`, the cell number change turned out to be 20%. For the same compound, the AC50 under setting [2] was 6.51 µM [rising, single point].
Turning to `COc1ccccc1OCCCC(=O)Nc1ccc([N+](=O)[O-])cc1Br`, the cell number change was determined as 19%. Under setting [2], the AC50 was 0.355 µM [rising, full curve, poor fit].
On to `CC(C)(C)NCC(O)COc1ccccc1C(C)(C)C` (stereo unspecified), for which the cell number change amounted to 2.38%.
`C=CCN(C(=O)c1csnn1)C(C(=O)NCc1ccccc1)c1c(F)cccc1Cl` (stereo unspecified): the cell number change was -52.4%. The half-maximal activity concentration (AC50) under setting [1] was 11.6 µM [falling, partial curve, poor fit].
As to `Nc1nnc(SCC(=O)N2CCCCC2)s1`, the cell number change is -4.86%. The AC50 under setting [2] is 0.116 µM [falling, full curve, poor fit].
Regarding `Cn1cc(CN2CCC(Oc3ccc(C(=O)N4CCCCC4)cc3)CC2)cn1`, the cell number change was -15.3%. Besides, the AC50 under setting [1] is 0.0731 µM [rising, full curve, poor fit].
`O=C(CSCc1cc(=O)n2nc(C3CC3)sc2n1)Nc1ccccc1Cl`: the cell number change is -4.25%. In addition, the AC50 under setting [2] was 0.82 µM [rising, single point].
In the case of `COc1ccc(OC)c(NC(=O)c2ccc(OCC(=O)N3CCOCC3)c(OC)c2)c1`, the cell number change came to 21.5%. In addition, under setting [1], the concentration at half-maximal activity (AC50) was 2.59 µM [rising, full curve, poor fit].
For the compound `C[C@@]12C(=O)N(c3cccc(Br)c3)C(=O)N1[C@H](c1ccc(Cl)cc1)[C@@H]1C(=O)N(C3CCCCC3)C(=O)[C@@H]12`, the cell number change amounted to 88.7%. Also, the AC50 under setting [1] is 23.1 µM [rising, partial curve, poor fit].
Regarding `COc1ccc([C@@H]2[C@@H]3C(=O)N(C(C)(C)C)C(=O)[C@@H]3[C@]3(C)C(=O)N(c4ccc(C)cc4)C(=O)N23)cc1`, the cell number change was 12.6%. Moreover, the half-maximal activity concentration (AC50) under setting [2] was 10.3 µM [falling, single point].
On to `CCc1ccc(C(=O)COC(=O)CNC(=O)c2ccco2)cc1`, for which the cell number change is 2.17%. For the same compound, the AC50 under setting [2] was 29.1 µM [rising, single point].
Consider `COc1ccccc1C(=O)Nc1ccc(C)c(S(=O)(=O)N2CCCCC2)c1`, for which the cell number change was 79.8%. For the same compound, the AC50 under setting [1] was 16.4 µM [rising, partial curve].
Consider `CNS(=O)(=O)c1cccc(C(=O)OCC(=O)N2CC(C)OC(C)C2)c1` (stereo unspecified), for which the cell number change came out at 36.5%. For the same compound, the AC50 under setting [1] was 14.6 µM [rising, partial curve, poor fit].
Regarding `CCC(=O)N1CCN(c2ccc(Cl)cc2NC(=O)c2ccc([N+](=O)[O-])o2)CC1`, under setting [2], the AC50 is 5.17 µM [falling, full curve].
With `FC(F)(F)c1nnc2ccc(-n3ccnc3)nn12`, the cell number change was -3.31%. Further, the AC50 under setting [2] was 20.6 µM [falling, single point].
As for `COc1cc(/C=c2\sc3n(c2=O)CCCN=3)ccc1O`, the cell number change is -21.7%. For the same compound, the half-maximal activity concentration (AC50) under setting [2] is 29.1 µM [falling, single point].
In the case of `Cc1cc(NC(=O)CSc2nnc(COc3cccc(C)c3C)n2C)no1`, the cell number change amounted to 2.33%. Further, the AC50 under setting [2] is 20.6 µM [falling, partial curve, poor fit].
